± gives the standard deviation of the averaged measurements. Some of the results follow. Repeats in this data set agree poorly, so a single value says little.

The test has as its system IL-6-GFP PC-9GR. Briefly: IL-6-GFP fluorescence relative to DMSO control (fraction of control); higher = more IL-6-GFP expression. As to conditions: compound concentration: 10 uM; treatment time: 48 h. As to the method:
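IL-6-GFP-overexpressing PC-9 and PC-9GR EGFR-mutant lung cancer cells (3000 cells/well, 96-well) were treated for 48 h with each compound of the Selleck L2000 library at 10 uM. IL-6-GFP fluorescence was read on a high-content screening system, and viability by CCK-8 absorbance on a parallel plate set. Each value was normalised as compound well / DMSO control well; two independent replicates.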
The compound `COc1ccc2cc1Oc1ccc(cc1)CC1c3cc(c(OC)cc3CCN1C)Oc1c(OC)c(OC)cc3c1C(C2)N(C)CC3` (stereo not given) [Tetrandrine] displayed an IL-6-GFP fluorescence of 0.787 ± 0.031.

`CNC(=O)c1ccccc1Sc1ccc2c(/C=C/c3ccccn3)n[nH]c2c1` [Axitinib] had an IL-6-GFP fluorescence of 1.17 ± 0.15. The result for `C/C=C(/C)C(=O)OC1C(OC(C)=O)C2(CO)C(O)CC3(C)C(=CCC4C5(C)CCC(OC6OC(C(=O)O)C(OC7OC(CO)C(O)C(O)C7O)C(O)C6OC6OC(CO)C(O)C(O)C6O)C(C)(CO)C5CCC43C)C2CC1(C)C` (stereo not given) [Escin] reads 0.777 ± 0.33; that for `COC(=O)NC(C(=O)N1CCCC1c1ncc(-c2ccc3c(c2)OC(c2ccccc2)n2c-3cc3cc(-c4cnc(C5CCCN5C(=O)C(NC(=O)OC)C(C)C)[nH]4)ccc32)[nH]1)C(C)C` (stereo not given) [Elbasvir], 2.23 ± 0.43; that for `CC(C)c1c(C(=O)Nc2ccccc2)c(-c2ccccc2)c(-c2ccc(F)cc2)n1CCC(O)CC(O)CC(=O)O` (stereo not given) [atorvastatin], 0.814 ± 0.18. Regarding `O=c1ccc2ccc(O)c(O)c2o1` [Daphnetin], the IL-6-GFP fluorescence worked out at 0.8201 ± 0.0077. In turn, `Nc1cc(C(Cl)=C(Cl)Cl)c(S(N)(=O)=O)cc1S(N)(=O)=O` [Clorsulon] registered an IL-6-GFP fluorescence of 1.11 ± 0.23. On to `CC12CCC(CC1=O)C2(C)C` (stereo not given) [Camphor], for which the IL-6-GFP fluorescence was 0.666 ± 0.24. In the case of `CCCC1CC(C(=O)NC(C(C)O)C2OC(SC)C(O)C(O)C2O)N(C)C1.Cl` (stereo not given) [Lincomycin HCl], the IL-6-GFP fluorescence came out at 1.11 ± 0.07.

Turning to `CC(=O)c1c(C)c2cnc(Nc3ccc(N4CCNCC4)cn3)nc2n(C2CCCC2)c1=O.Cl`, the IL-6-GFP fluorescence was determined as 0.791 ± 0.23.
